PubChem BioAssay AID1224830, NIAID | 2016

Screen: 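Genes whose knock-down alters the TNF-alpha reporter response to LPS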 (primary screen)
Cell system: human THP-1 monocytic leukaemia cells, TNF dual-luciferase reporter clone, PMA-differentiated to macrophage-like cells
Reagent: siRNA pool against human genes, 50 nM
Timing: LPS for 4 h, given about 3 days after siRNA transfection
Treatment: bacterial LPS (TLR4 ligand), 10 ng/ml
Measured: 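TNF firefly reporter luminescence divided by renilla, normalised to the plate median, then turned into a robust z-score for each replicate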
Reading the numbers: TNF reporter robust z-score: higher = stronger TNF reporter response to LPS
Hit rule: 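a well is active when its z-score exceeds 2.8 or falls below -1.5; control wells carry no call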
Here is one part, drawn at random, of about 18,000 deposited reagents. About 2,900 of all reagents (16%) were called active. 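Calls are made per well; low scores hint the gene aids the LPS response, high scores that it dampens it.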 Repeated entries: four replicate wells of each siRNA pool.

UBQLN2 (ubiquilin 2) [SID315456258] gave TNF reporter robust z-score -0.63; inactive.
For UBQLN2 (ubiquilin 2) [SID315456258] the deposit lists TNF reporter robust z-score -0.2; inactive.
With knock-down of UBQLN2 (ubiquilin 2) [SID315456258] the results were TNF reporter robust z-score 0.65; inactive.
With knock-down of UBQLN2 (ubiquilin 2) [SID315456258], the record shows TNF reporter robust z-score -0.42; inactive.
Silencing of L2HGDH (L-2-hydroxyglutarate dehydrogenase) [SID315459579] resulted in: TNF reporter robust z-score -0.69; inactive.
L2HGDH (L-2-hydroxyglutarate dehydrogenase) [SID315459579] showed TNF reporter robust z-score -0.71; inactive.
For L2HGDH (L-2-hydroxyglutarate dehydrogenase) [SID315459579] the deposit lists TNF reporter robust z-score -1.03; inactive.
After knock-down of L2HGDH (L-2-hydroxyglutarate dehydrogenase) [SID315459579] the results were TNF reporter robust z-score -1.59; active.
Silencing of PNN (pinin, desmosome associated protein) [SID315450675] came out at: TNF reporter robust z-score -0.16; inactive.
Depletion of PNN (pinin, desmosome associated protein) [SID315450675] resulted in: TNF reporter robust z-score 0.83; inactive.
PNN (pinin, desmosome associated protein) [SID315450675] gave TNF reporter robust z-score 0.7; inactive.
After knock-down of PNN (pinin, desmosome associated protein) [SID315450675], the screen gave TNF reporter robust z-score 0.41; inactive.
Knock-down of ADGRG2 (adhesion G protein-coupled receptor G2) [SID315453859] resulted in: TNF reporter robust z-score -0.92; inactive.
ADGRG2 (adhesion G protein-coupled receptor G2) [SID315453859] gave TNF reporter robust z-score -0.73; inactive.
ADGRG2 (adhesion G protein-coupled receptor G2) [SID315453859] showed TNF reporter robust z-score -0.71; inactive.
Depletion of ADGRG2 (adhesion G protein-coupled receptor G2) [SID315453859] gave: TNF reporter robust z-score -0.91; inactive.
APOC2 (apolipoprotein C2) [SID315447358] scored TNF reporter robust z-score -1.47; inactive.
Against APOC2 (apolipoprotein C2) [SID315447358], the entry reads TNF reporter robust z-score -1.35; inactive.
After knock-down of APOC2 (apolipoprotein C2) [SID315447358] the results were TNF reporter robust z-score -1.87; active.
With knock-down of APOC2 (apolipoprotein C2) [SID315447358], the record shows TNF reporter robust z-score -1.29; inactive.
Silencing of ELANE (elastase, neutrophil expressed) [SID315448483] gave: TNF reporter robust z-score -0.16; inactive.
Against ELANE (elastase, neutrophil expressed) [SID315448483], the values are TNF reporter robust z-score 0.65; inactive.
Against ELANE (elastase, neutrophil expressed) [SID315448483], the values are TNF reporter robust z-score 0.76; inactive.
After knock-down of ELANE (elastase, neutrophil expressed) [SID315448483] the results were TNF reporter robust z-score -0.1; inactive.
CFAP44 (cilia and flagella associated protein 44) [SID315457850] scored TNF reporter robust z-score 0.39; inactive.
Knock-down of CFAP44 (cilia and flagella associated protein 44) [SID315457850] came out at: TNF reporter robust z-score 0.63; inactive.
CFAP44 (cilia and flagella associated protein 44) [SID315457850] scored TNF reporter robust z-score 1.03; inactive.
With knock-down of CFAP44 (cilia and flagella associated protein 44) [SID315457850], the record shows TNF reporter robust z-score 0.51; inactive.
With knock-down of DYRK1A [SID315448412], the screen gave TNF reporter robust z-score 0.06; inactive.
For DYRK1A [SID315448412], the values are TNF reporter robust z-score -0.28; inactive.
For DYRK1A [SID315448412], the values are TNF reporter robust z-score -0.91; inactive.
With knock-down of DYRK1A [SID315448412] the results were TNF reporter robust z-score -0.77; inactive.
TTLL12 (tubulin tyrosine ligase like 12) [SID315455041] scored TNF reporter robust z-score 3.46; active.
Silencing of TTLL12 (tubulin tyrosine ligase like 12) [SID315455041] resulted in: TNF reporter robust z-score 1.58; inactive.
TTLL12 (tubulin tyrosine ligase like 12) [SID315455041] scored TNF reporter robust z-score 2.31; inactive.
For TTLL12 (tubulin tyrosine ligase like 12) [SID315455041], the values are TNF reporter robust z-score 0.51; inactive.
For MAGEC3 (MAGE family member C3) [SID315462061] the deposit lists TNF reporter robust z-score -0.1; inactive.
MAGEC3 (MAGE family member C3) [SID315462061] showed TNF reporter robust z-score -0.63; inactive.
Silencing of MAGEC3 (MAGE family member C3) [SID315462061] resulted in: TNF reporter robust z-score -0.24; inactive.
Depletion of MAGEC3 (MAGE family member C3) [SID315462061] resulted in: TNF reporter robust z-score 0.76; inactive.
After knock-down of PLD3 (phospholipase D family member 3) [SID315455391], the screen gave TNF reporter robust z-score -0.61; inactive.
PLD3 (phospholipase D family member 3) [SID315455391] gave TNF reporter robust z-score -0.59; inactive.
After knock-down of PLD3 (phospholipase D family member 3) [SID315455391], the screen gave TNF reporter robust z-score -1.41; inactive.
With knock-down of PLD3 (phospholipase D family member 3) [SID315455391], the screen gave TNF reporter robust z-score -0.9; inactive.
C2CD2L (C2CD2 like) [SID315453620] showed TNF reporter robust z-score 2.58; inactive.
Depletion of C2CD2L (C2CD2 like) [SID315453620] gave: TNF reporter robust z-score 2.17; inactive.
Depletion of C2CD2L (C2CD2 like) [SID315453620] came out at: TNF reporter robust z-score 3.47; active.
C2CD2L (C2CD2 like) [SID315453620] gave TNF reporter robust z-score 2.62; inactive.
